Results are given in words; binding and its absence hold for the method and conditions named. Binding seen in cells or lysates may run through a third protein. A yes stands for co-enrichment or nearness to the bait. Other partners may have been found.
What follows are substances tested against PfNIF4-FKBP-TurboID fusion protein (P. falciparum (endogenous locus of the 3D7 parasite, tagged)) (UniProt Q8IJR8) (assay: proximity labelling; TurboID: synchronized NIF4^TurboID schizonts (36 hpi) labelled with 500 μM biotin at 37°C for 10 min; biotinylated proteins purified from the lysate (Pierce IP Lysis Buffer) on streptavidin magnetic beads, digested on the beads, LC-MS/MS; 3D7 parasites as negative control; three biological replicates; hits filtered against a nuclear proteome data set).

Chains of the proteins cited; added tags and fusions are not shown. Lines headed by an entry give the natural chain unless they say otherwise; changes in a name come on top.
UniProt Q8IET7: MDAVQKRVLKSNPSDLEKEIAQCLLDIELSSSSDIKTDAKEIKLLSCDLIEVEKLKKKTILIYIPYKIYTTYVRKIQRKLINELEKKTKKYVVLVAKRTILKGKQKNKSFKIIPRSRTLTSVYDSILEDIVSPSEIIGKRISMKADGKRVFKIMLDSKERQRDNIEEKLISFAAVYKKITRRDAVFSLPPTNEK
UniProt C0H4L1: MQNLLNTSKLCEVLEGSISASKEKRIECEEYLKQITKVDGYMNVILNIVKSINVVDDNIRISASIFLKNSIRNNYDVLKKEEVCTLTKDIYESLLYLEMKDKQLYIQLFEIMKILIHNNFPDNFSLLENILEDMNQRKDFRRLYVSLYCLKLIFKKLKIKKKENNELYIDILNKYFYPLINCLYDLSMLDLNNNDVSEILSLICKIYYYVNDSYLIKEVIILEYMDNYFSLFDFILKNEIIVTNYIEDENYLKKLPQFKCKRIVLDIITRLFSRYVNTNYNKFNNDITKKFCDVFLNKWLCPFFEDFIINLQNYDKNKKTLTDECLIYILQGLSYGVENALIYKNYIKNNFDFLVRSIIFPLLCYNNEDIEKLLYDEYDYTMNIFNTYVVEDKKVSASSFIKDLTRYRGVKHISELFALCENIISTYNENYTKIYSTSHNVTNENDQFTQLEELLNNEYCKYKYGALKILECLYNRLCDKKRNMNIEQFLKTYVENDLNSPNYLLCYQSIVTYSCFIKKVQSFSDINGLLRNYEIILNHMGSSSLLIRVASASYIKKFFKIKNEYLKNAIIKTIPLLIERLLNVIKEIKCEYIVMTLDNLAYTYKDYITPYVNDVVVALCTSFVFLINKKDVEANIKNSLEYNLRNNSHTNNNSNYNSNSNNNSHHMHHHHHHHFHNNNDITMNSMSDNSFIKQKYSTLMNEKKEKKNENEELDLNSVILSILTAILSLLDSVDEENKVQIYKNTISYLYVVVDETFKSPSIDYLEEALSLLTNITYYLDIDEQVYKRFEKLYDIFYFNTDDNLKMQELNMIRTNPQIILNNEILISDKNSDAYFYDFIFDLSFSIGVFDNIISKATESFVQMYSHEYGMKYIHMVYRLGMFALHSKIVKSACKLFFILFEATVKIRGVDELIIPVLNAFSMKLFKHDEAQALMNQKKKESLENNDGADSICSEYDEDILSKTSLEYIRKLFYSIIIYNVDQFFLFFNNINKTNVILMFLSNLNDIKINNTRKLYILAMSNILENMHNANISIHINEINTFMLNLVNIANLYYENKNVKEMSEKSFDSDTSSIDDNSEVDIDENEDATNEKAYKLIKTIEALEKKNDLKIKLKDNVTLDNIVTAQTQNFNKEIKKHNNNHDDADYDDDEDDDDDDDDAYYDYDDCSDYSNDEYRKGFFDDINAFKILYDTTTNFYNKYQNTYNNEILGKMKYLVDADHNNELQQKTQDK
UniProt Q8ILM5: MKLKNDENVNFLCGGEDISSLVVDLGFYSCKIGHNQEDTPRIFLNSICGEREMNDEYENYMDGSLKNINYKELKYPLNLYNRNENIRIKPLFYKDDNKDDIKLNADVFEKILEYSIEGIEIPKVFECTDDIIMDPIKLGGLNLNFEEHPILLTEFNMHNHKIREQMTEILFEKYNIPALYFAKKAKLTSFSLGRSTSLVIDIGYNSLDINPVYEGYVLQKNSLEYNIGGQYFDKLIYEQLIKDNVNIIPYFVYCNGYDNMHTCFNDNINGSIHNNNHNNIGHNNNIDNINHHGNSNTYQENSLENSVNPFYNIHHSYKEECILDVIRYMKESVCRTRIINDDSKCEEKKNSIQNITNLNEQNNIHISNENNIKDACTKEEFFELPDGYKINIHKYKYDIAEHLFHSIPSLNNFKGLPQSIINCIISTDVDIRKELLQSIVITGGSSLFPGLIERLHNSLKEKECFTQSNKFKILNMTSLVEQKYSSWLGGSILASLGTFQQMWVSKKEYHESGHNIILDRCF
UniProt Q8I1V1: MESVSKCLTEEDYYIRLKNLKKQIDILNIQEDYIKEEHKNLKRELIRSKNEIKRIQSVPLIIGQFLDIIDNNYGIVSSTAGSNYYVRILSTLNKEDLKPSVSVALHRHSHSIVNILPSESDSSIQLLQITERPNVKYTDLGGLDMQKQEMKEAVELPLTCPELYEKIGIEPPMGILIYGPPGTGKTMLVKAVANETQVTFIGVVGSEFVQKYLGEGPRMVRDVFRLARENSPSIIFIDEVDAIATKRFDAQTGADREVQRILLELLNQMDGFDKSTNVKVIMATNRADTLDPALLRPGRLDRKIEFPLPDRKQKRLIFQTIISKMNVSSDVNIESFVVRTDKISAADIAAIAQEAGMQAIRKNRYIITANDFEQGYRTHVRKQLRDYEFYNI
UniProt C0H5B1: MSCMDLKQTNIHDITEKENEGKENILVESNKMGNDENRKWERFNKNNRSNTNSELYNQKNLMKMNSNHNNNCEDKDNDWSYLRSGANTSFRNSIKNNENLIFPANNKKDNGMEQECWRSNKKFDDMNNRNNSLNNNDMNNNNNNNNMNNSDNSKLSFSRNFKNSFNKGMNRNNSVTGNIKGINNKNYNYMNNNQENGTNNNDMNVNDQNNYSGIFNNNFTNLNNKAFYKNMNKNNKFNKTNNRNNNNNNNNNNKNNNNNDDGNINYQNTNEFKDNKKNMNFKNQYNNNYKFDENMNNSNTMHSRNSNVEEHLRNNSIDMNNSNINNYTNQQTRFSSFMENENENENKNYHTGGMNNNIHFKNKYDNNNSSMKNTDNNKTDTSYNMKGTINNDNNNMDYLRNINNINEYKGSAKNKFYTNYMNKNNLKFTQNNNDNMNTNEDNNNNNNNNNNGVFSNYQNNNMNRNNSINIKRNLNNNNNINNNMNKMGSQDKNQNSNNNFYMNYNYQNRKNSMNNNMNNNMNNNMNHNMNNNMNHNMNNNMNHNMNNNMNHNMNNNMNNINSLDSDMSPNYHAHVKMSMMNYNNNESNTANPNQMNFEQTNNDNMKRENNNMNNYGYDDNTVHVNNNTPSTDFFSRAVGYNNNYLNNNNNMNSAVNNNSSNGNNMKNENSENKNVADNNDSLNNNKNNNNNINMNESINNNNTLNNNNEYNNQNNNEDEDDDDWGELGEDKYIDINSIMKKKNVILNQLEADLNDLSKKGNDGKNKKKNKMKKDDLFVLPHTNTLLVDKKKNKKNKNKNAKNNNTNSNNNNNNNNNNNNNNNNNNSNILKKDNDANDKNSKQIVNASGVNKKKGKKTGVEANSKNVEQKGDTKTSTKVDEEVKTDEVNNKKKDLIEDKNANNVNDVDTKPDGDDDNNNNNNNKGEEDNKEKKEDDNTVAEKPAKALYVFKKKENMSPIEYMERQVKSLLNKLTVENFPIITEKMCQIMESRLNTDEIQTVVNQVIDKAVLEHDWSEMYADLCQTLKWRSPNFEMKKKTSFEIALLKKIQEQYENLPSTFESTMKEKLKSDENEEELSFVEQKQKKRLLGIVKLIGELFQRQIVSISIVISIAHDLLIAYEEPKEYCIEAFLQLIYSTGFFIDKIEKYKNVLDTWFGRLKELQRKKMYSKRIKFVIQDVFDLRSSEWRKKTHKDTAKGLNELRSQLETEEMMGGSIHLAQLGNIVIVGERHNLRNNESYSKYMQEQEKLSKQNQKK
UniProt Q8IKM5: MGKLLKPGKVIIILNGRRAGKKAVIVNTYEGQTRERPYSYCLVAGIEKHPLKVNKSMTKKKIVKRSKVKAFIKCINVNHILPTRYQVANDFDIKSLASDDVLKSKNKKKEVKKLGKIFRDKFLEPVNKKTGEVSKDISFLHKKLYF
UniProt Q8IK93: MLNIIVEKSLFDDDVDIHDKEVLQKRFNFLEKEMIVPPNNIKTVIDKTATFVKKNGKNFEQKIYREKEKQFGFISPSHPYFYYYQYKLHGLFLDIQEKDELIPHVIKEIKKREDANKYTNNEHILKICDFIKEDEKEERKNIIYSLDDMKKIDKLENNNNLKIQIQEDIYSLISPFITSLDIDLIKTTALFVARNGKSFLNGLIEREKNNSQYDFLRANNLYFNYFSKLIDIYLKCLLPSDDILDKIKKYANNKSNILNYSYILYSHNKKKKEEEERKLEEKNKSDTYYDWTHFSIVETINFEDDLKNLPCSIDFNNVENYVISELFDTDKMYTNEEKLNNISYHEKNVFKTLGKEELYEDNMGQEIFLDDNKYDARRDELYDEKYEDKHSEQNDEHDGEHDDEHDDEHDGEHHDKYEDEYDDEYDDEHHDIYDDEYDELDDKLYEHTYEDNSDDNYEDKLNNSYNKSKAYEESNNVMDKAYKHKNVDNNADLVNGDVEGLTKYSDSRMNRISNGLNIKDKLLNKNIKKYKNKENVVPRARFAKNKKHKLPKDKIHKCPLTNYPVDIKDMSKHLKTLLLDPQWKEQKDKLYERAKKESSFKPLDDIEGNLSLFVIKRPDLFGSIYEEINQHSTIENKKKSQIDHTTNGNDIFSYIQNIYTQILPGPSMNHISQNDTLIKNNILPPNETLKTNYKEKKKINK
UniProt Q8IM10: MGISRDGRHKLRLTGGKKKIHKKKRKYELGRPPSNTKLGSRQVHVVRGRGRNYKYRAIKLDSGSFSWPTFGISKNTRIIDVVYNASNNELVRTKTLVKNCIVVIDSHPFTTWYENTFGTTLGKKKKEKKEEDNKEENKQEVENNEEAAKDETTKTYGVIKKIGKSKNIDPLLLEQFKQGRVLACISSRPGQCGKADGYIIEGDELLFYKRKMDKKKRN
UniProt Q8I2S6: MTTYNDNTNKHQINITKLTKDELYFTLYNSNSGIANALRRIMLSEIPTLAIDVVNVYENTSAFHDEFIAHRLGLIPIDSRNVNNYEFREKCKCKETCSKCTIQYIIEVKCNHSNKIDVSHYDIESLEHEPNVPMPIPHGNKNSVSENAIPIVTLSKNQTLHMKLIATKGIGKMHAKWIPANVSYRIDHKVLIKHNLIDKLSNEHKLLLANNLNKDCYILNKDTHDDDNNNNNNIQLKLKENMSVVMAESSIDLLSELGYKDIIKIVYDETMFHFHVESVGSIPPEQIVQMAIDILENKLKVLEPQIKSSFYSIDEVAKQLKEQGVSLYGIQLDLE
UniProt Q8I3J3: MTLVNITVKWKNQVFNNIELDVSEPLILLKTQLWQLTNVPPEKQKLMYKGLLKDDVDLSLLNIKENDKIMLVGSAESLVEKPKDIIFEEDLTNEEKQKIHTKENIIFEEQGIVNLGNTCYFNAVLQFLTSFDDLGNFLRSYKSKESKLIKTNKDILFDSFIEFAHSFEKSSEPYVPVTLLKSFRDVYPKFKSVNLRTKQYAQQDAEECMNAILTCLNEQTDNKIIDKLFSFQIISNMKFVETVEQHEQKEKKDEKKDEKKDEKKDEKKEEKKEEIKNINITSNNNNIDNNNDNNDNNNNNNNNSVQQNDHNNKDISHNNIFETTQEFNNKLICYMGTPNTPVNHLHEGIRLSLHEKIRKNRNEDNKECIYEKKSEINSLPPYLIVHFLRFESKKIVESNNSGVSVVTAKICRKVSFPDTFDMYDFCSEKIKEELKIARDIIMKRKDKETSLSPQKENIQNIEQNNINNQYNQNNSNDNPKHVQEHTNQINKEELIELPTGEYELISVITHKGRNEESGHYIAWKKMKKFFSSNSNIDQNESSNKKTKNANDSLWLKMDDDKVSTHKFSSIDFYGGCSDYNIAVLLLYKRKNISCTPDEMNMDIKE
UniProt Q8IIX0: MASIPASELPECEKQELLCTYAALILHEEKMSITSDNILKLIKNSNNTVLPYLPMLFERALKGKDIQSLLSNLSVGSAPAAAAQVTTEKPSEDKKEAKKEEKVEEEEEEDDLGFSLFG
UniProt Q8ILK3: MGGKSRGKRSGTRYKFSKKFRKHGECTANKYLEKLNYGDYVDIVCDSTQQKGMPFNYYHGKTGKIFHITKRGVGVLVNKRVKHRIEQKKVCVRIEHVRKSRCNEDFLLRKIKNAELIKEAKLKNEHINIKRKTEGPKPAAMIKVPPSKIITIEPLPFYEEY
UniProt Q25804: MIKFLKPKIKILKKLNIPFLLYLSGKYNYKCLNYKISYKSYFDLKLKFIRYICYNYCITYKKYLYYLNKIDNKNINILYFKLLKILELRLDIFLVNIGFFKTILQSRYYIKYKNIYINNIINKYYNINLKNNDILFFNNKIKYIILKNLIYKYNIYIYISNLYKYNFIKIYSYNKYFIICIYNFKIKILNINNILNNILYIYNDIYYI
UniProt Q8I4Y3: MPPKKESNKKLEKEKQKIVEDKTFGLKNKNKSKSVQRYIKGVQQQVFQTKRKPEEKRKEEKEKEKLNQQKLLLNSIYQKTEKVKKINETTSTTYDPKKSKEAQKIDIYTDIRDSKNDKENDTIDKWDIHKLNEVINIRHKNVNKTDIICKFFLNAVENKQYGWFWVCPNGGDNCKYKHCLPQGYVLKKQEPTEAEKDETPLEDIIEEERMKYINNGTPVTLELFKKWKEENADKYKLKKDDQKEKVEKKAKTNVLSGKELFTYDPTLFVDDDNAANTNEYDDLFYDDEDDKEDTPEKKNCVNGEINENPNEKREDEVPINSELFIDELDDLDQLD
UniProt Q8IFP2: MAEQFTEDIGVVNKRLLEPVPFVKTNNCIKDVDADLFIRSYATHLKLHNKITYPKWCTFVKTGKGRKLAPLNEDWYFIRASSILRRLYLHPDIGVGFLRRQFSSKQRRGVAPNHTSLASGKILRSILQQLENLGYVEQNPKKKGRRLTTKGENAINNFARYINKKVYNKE

Row | Substance | binding
1 | histone acetyltransferase GCN5 (from UniProt Q8IB67 1-1465) | binds
2 | single-stranded DNA-binding protein, putative (from UniProt Q8I3Q6) | binds
3 | histone H3 (H3.3, PF3D7_0617900) (from UniProt C6KT19) | binds
4 | 40S ribosomal protein S7, putative (from UniProt Q8IET7) | binds
5 | importin-7, putative (from UniProt C0H4L1) | binds
6 | actin-related protein ARP4 (from UniProt Q8ILM5) | binds
7 | AP2 domain transcription factor SIP2 (from UniProt C6KSN9) | binds
8 | 26S protease regulatory subunit 6B, putative (from UniProt Q8I1V1) | binds
9 | eukaryotic translation initiation factor 4 gamma (from UniProt C0H5B1) | binds
10 | pre-mRNA-splicing factor ATP-dependent RNA helicase PRP43, putative (from UniProt Q8I2X7) | binds
11 | 60S ribosomal protein L27 (from UniProt Q8IKM5) | binds
12 | splicing factor 3A subunit 1, putative (from UniProt Q8IK93) | binds
13 | 40S ribosomal protein S8e, putative (from UniProt Q8IM10) | binds
14 | Obg-like ATPase 1, putative (from UniProt Q8IBM9) | binds
15 | DNA-directed RNA polymerase II subunit RPB3 (from UniProt Q8I2S6) | binds
16 | glutamate dehydrogenase, putative (from UniProt Q8IAM0) | binds
17 | ubiquitin carboxyl-terminal hydrolase 14 (from UniProt Q8I3J3) | binds
18 | 60S acidic ribosomal protein P1, putative (from UniProt Q8IIX0) | binds
19 | 60S ribosomal protein L21 (from UniProt Q8ILK3) | binds
20 | 40S ribosomal protein S4, putative (from UniProt Q25804) | binds
21 | 60S ribosomal protein L30e, putative (from UniProt Q8IJK8) | binds
22 | translation machinery-associated protein 46, putative (from UniProt Q8I4Y3) | binds
23 | 40S ribosomal protein S19 (PF3D7_0422400) (from UniProt Q8IFP2) | binds
